# Data from US7319153B2, “6,13-Bis(thienyl)pentacene compounds” (3M Innovative Properties Company, priority 2005, dated 2008).
# Assay: Thin film transistor performance test (OTFT with vacuum-sublimed semiconductor layer)
# Details: room temperature in air; for Mobility: 600 Å layer
# [1] = gate dielectric Alumina, no surface treatment
# [2] = gate dielectric Alumina/α-methylstyrene surface treatment
smiles,measurement,setting,value
"c1csc(-c2c3cc4ccccc4cc3c(-c3cccs3)c3cc4ccccc4cc23)c1 [Example 1, 2-(13-thien-2-ylpentacene-6-yl)thiophene]",On/Off Ratio,[1],1.5 × 10^3
same,S,[1],2.06 V/decade
same,Vt,[1],−18.2 volts
same,Mobility,[1],3.45 × 10^−4 cm^2/V-sec
same,On/Off Ratio,[2],1.1 × 10^4
same,S,[2],1.04 V/decade
same,Vt,[2],−3.38 volts
same,Mobility,[2],1.83 × 10^−2 cm^2/V-sec
same,On/Off Ratio,gate dielectric Silica,80.4
same,S,gate dielectric Silica,5.01 V/decade
same,Vt,gate dielectric Silica,0.0429 volts
same,Mobility,gate dielectric Silica,6.92 × 10^−6 cm^2/V-sec
